Results on 30 compounds are retold here after the supplement of paper PMC12889115.

The subject of this assay is Salmonella enterica serovar Typhimurium SL1344. The assay is described as follows: bacterial growth OD600 after 18 h with compound and polymyxin B; higher = more bacterial growth (less inhibition). As to conditions: 50 µM, Mueller-Hinton broth.

This is one part of the list. Values are raw readings; no control value is given beside them.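 Primary screen: polymyxin B was added at a level permeabilizing Salmonella outer membranes while sparing inner membranes. DMSO wells, both with and without polymyxin B, established maximum growth. Plate-to-plate variation meant each plate was ranked on its own, and the lowest-OD600 compounds were selected as hits.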

With `COCCNC(=O)c1cccc(OC2CCN(Cc3ccc(Cl)s3)CC2)c1`, the “bacterial growth OD600” value (polymyxin B 0.75 µg/mL) was 0.558.

With `CCOC(=O)N1CCC(NCc2cccc(OCC(O)CN3CCCCCC3)c2)CC1` (stereo not given), where the note is “polymyxin B 1 µg/mL”, the “bacterial growth OD600” value is 0.863. Turning to `CCOC(=O)C1(CCCc2ccccc2)CCCN(C(=O)C2CCC2)C1` (stereo not given), the “bacterial growth OD600” value (polymyxin B 1 µg/mL) is 0.377.

As to `COCc1ccc(C(=O)NCc2c(C)ncc3c2CCN(C(=O)Cc2c(C)noc2C)C3)o1`, the “bacterial growth OD600” value (polymyxin B 0.75 µg/mL) was determined as 0.789. `CN(C)S(=O)(=O)N1CCC(Oc2cccc(C(=O)NCc3ccsc3)c2)CC1`: the “bacterial growth OD600” value (polymyxin B 1 µg/mL) stood at 0.898. For `O=C1CCC(CCC(=O)N2CCCC2)(Cc2ccc(Cl)cc2)N1` (stereo not given), under “polymyxin B 0.75 µg/mL”, the “bacterial growth OD600” value was 0.835. For `CCOC(=O)C1(CCCc2ccccc2)CCCN(C(=O)Cn2cccn2)C1` (stereo not given), the “bacterial growth OD600” value (polymyxin B 1 µg/mL) was determined as 1.08. In the case of `CCOC(=O)C1(Cc2ccccc2)CCN(Cc2c(C)nn(C)c2Cl)CC1`, the “bacterial growth OD600” value (polymyxin B 0.75 µg/mL) worked out at 0.926. In the case of `Cc1c(CN2CCC(C3CCN(Cc4ccc(Cl)cc4)C3)CC2)cnn1C` (stereo not given), where the note is “polymyxin B 1 µg/mL”, the “bacterial growth OD600” value was 0.974. For the compound `CCC(=O)N1CCC2(CCCN(Cc3cc(OC)ccc3F)C2=O)C1` (stereo not given), under “polymyxin B 1 µg/mL”, the “bacterial growth OD600” value was determined as 0.99. With `Cc1cc(CN2CC[C@@H](N3CCCCCC3)[C@H](O)C2)oc1C`, the “bacterial growth OD600” value (polymyxin B 1 µg/mL) is 1.27. Take `O=C1CCC(CCC(=O)N2CCC(Oc3ccccc3F)CC2)(Cc2ccccc2)N1` (stereo not given): the “bacterial growth OD600” value (polymyxin B 0.75 µg/mL) amounted to 0.994.

For `CCN(CC1CCN(CCc2ccccc2C)CC1)C(=O)CCc1scnc1C`, where the note is “polymyxin B 1 µg/mL”, the “bacterial growth OD600” value came out at 1.25. With `CN(Cc1ccc(F)cc1)Cc1cnc(S(C)(=O)=O)n1CCCc1ccccc1`, the “bacterial growth OD600” value (polymyxin B 1 µg/mL) was 0.01. Consider `O=C(C1CCC1)N1CCC(C2CCN(Cc3ccc(Cl)cc3)C2)CC1` (stereo not given), for which the “bacterial growth OD600” value (polymyxin B 0.75 µg/mL) stood at 0.832. Same read-out and setting: with `C1CC2CN(c3nc4nonc4nc3N3CCOCC3)CCN2C1` (stereo not given) the figure was 0.813.

With `CCOC(=O)N1CCN(C(=O)Cn2nnnc2CN2CCCCCC2)CC1`, for the setting “polymyxin B 1 µg/mL”, the “bacterial growth OD600” value worked out at 0.909. As to `O=C(Nc1cc(C(=O)N2CCC[C@H]2CO)c2c(c1)ncn2C1CCCC1)c1ccccc1`, the “bacterial growth OD600” value (polymyxin B 0.75 µg/mL) came out at 0.83.

In the case of `COC(=O)CCCC(=O)N1CCOC(CC2CCCCC2)C1` (stereo not given), under “polymyxin B 0.75 µg/mL”, the “bacterial growth OD600” value came to 0.98. As to `Cc1cccc(C)c1Oc1ncccc1CNC(=O)c1cscn1`, for the setting “polymyxin B 1 µg/mL”, the “bacterial growth OD600” value amounted to 0.893.

Regarding `O=S(=O)(Cc1ccccc1)NCc1cccnc1Oc1ccccc1`, for the setting “polymyxin B 1 µg/mL”, the “bacterial growth OD600” value was 0.868.

As to `CC(C)(CN1CCOCC1)CN1CC[C@@H](N2CCN(c3ccccc3F)CC2)[C@H](O)C1`, the “bacterial growth OD600” value (polymyxin B 1 µg/mL) is 0.887.

Consider `Cc1nccn1CCC1CCCCN1C(=O)Cn1nnnc1CN1CCOCC1` (stereo not given), for which the “bacterial growth OD600” value (polymyxin B 1 µg/mL) was found to be 1.01. Regarding `COC1CCN(Cc2cnc(S(=O)(=O)C(C)C)n2CCc2ccccc2)CC1`, the “bacterial growth OD600” value (polymyxin B 1 µg/mL) is 1.24.

As to `Cn1cc(CN2CCC(c3ccc(F)c(F)c3)Sc3ccccc32)cn1` (stereo not given), the “bacterial growth OD600” value (polymyxin B 0.75 µg/mL) came to 0.001. Take `Cc1cc(C)n(CC(C)NC(=O)c2cn(CCC3CCCCC3)nn2)n1` (stereo not given): the “bacterial growth OD600” value (polymyxin B 1 µg/mL) was 0.916.

As to `CCN(CC1CCCN(CCc2cccc(OC)c2)C1)C(=O)CSc1ccncc1` (stereo not given), the “bacterial growth OD600” value (polymyxin B 1 µg/mL) turned out to be 0.892. Turning to `CCC1CN(CCNC(=O)Cn2nc3ccccc3n2)Cc2cc(OC)ccc2O1` (stereo not given), the “bacterial growth OD600” value (polymyxin B 0.75 µg/mL) turned out to be 0.781.

Regarding `CCOC(=O)C1(CCCc2ccccc2)CCN(C(=O)C2CC=CCC2)CC1` (stereo not given), the “bacterial growth OD600” value (polymyxin B 1 µg/mL) is 0.002. Consider `Cc1csc(C(C)NC2CCN(c3ccc(C(=O)NCCN4CCOCC4)cc3)CC2)n1` (stereo not given), for which the “bacterial growth OD600” value (polymyxin B 0.75 µg/mL) came out at 0.857.
